Data published in PubChem BioAssay AID2685 (National Center for Advancing Translational Sciences (NCATS), 2010).
Some of the results follow. Shown are side measurements of this screen, not its main read-out; they come without a call. Compounds called inactive in the main read-out are mostly missing here. Words in brackets tell the shape of the fitted curve; partial curves, single points and poor fits give uncertain potencies.

Test: qHTS Assay for Lipid Storage Modulators in Drosophila S3 Cells;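 on cell number change: cells counted by Cell Tracker Red CMTPX staining in the red channel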
Settings: BODIPY lipid droplet fluorescence, 18-24 h; for cell number change: measured here: cell count max response, cells fed with added oleic acid
Method in brief: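 Drosophila S3 cells got compounds at several concentrations plus oleic acid (400 uM solution). Laser-scanning cytometry with 488 nm excitation read lipid droplets at 500-530 nm and cells at 575-640 nm. Percent activity was relative to 20 uM Triacsin C.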

[1] = measured here: lipid fluorescence (Fed channel) AC50, cells fed with added oleic acid
[2] = measured here: cell number channel AC50, cells fed with added oleic acid

| Compound | cell number change [%] | AC50 [1] | AC50 [2] |
| --- | --- | --- | --- |
| COc1cc2c(cc1OC)[C@@H](Cc1ccc(OCCC#N)cc1)N(C)CC2 | 19.1 | – | – |
| CCc1cccc2c(C(=S)N3CCCC3)c[nH]c12 | -26.2 | 29100 nM [falling, single point] | – |
| COc1ccc(NC(=O)CN2CCN(CC(=O)Nc3ccccc3OC)CC2)c(OC)c1 | 8.33 | – | – |
| COCCn1c(N)c(C(=O)Nc2sc3c(c2C(=O)OC)CCCC3)c2nc3ccccc3nc21 | 145 | 580 nM [rising, single point] | 291 nM [rising, partial curve, poor fit] |
| O=C(COc1ccc(Cl)cc1)N/N=C/CCc1ccccc1 | -29.3 | 1840 nM [falling, single point] | – |
| O=C(Nc1ncccc1O)c1cccc(S(=O)(=O)N2CCc3ccccc32)c1 | 30.5 | – | 29100 nM [rising, single point] |
| Cc1cc2c(C)ccc(C)c2nc1SCC(=O)c1cccs1 | 28.6 | 146 nM [rising, full curve, poor fit] | 164 nM [rising, full curve, poor fit] |
| CCN(Cc1ccccc1)C(=O)COC(=O)Cc1c[nH]c2ccccc12 | – | 1640 nM [falling, full curve] | 2060 nM [falling, partial curve] |
| C/C(=N\NC(=O)C12CCC(C)(C(=O)O1)C2(C)C)c1ccccc1O (centres undefined) | -13.6 | – | 116 nM [falling, full curve, poor fit] |
| COc1ccc2oc(C(=O)OCC(=O)NC(=O)c3ccccc3)c(C)c2c1 | 32.8 | 11600 nM [rising, partial curve, poor fit] | 5.17 nM [rising, full curve, poor fit] |
| O=C(N/N=C/c1cccs1)c1cncc(Br)c1 | 23.4 | 9200 nM [rising, partial curve] | – |
| N#Cc1ccsc1NC(=O)COC(=O)c1ccc2ccccc2c1 | 15.5 | 2310 nM [rising, partial curve] | – |
| O=c1ccc(-c2ccc(S(=O)(=O)N3CCCCC3)o2)n[nH]1 | -33.4 | 13000 nM [falling, partial curve, poor fit] | 10300 nM [falling, partial curve] |
| c1ccc(-n2ncc3c2ncn2c(C4CCCCC4)nnc32)cc1 | -30.4 | 29100 nM [falling, single point] | 6510 nM [falling, full curve, poor fit] |
| COc1ccc(S(=O)(=O)N2CCCC(C(=O)NCCc3ccccc3)C2)cc1 (centres undefined) | 2.99 | – | – |
| Cc1ccc2nc(-c3ccc(NC(=O)Cc4cccs4)cc3)[nH]c2c1 | -50.3 | 16400 nM [falling, partial curve] | 18400 nM [falling, partial curve, poor fit] |
| CC(C)N1CC(C(=O)Nc2ccc(Br)c(Cl)c2)CC1=O (centres undefined) | 1.35 | 6510 nM [rising, single point] | – |
| CC(C)(C)C(=O)Nc1c2c(nn1-c1ccc(F)cc1)CSC2 | -1.98 | 29100 nM [rising, single point] | – |

| Compound | cell number change [%] | AC50 [1] | AC50 [2] |
| --- | --- | --- | --- |
| O=C(Cc1ccccc1[N+](=O)[O-])N1CCOCC1 | 23.5 | – | 651 nM [rising, full curve, poor fit] |
| CC1(C)CC(=O)C(C(c2ccc(Br)cc2)C2C(=O)CC(C)(C)CC2=O)C(=O)C1 | 3.04 | – | – |
| S=c1[nH]nc(-c2cccs2)n1/N=C/c1cccs1 | -4.9 | – | 5.17 nM [falling, full curve, poor fit] |
| Cn1c(=O)[nH]c(=O)c2c1nc(N/N=C/C(Br)=C/c1ccccc1)n2CCO | 18.6 | – | – |
| CCOc1ccccc1C1C(C#N)=C(N)Nc2onc(-c3ccccc3)c21 (centres undefined) | -23.3 | 231 nM [falling, full curve] | 731 nM [falling, full curve, poor fit] |
| O=C(OCC(=O)N1CCc2ccccc2C1)c1cccs1 | – | – | 2060 nM [falling, single point] |
| Cc1ccc(NC(=O)COc2ccccc2C(=O)Nc2ccccc2)cc1Cl | -10.4 | 1160 nM [rising, full curve, poor fit] | – |
| CC(=O)N1CCc2cc(Br)cc(S(=O)(=O)N3CCC(C(=O)O)CC3)c21 | -5.65 | 130 nM [falling, full curve] | – |
| O=C(Nc1cc(Cl)cc(Cl)c1)C1C2C=CC3(O2)C1C(=O)N(CCCN1CCOCC1)C3C(=O)NC1CCCCC1 (centres undefined) | 22.2 | 6510 nM [rising, partial curve] | 2590 nM [rising, partial curve, poor fit] |
| Cc1ccnc(SCCn2c(Br)nc3c2c(=O)[nH]c(=O)n3C)n1 | 2.56 | 3260 nM [rising, partial curve] | – |
| COc1cccc(NC(=O)CSc2nc(C)cs2)c1 | 20.5 | 6510 nM [falling, single point] | – |
| Cc1cc(C)nc(Nc2nc3ccccc3s2)n1 | – | 6510 nM [rising, partial curve, poor fit] | 2910 nM [rising, single point] |
| CCOc1ccccc1NS(=O)(=O)c1cn(C)nc1C | -38 | 3160 nM [rising, single point] | – |
| O=C(O)c1ccc(CS(=O)(=O)c2cccc(C(F)(F)F)c2)o1 | -40.8 | 146 nM [falling, full curve] | 580 nM [falling, full curve] |
| COc1ccc(OCCOC(=O)C(C)NS(=O)(=O)c2ccc(NC(C)=O)cc2)cc1 (centres undefined) | -8.43 | – | – |
| Cc1cc(C(=O)NC2CCCc3c2cnn3-c2cc(F)cc(F)c2)nn1C (centres undefined) | 12.2 | 580 nM [falling, full curve] | 731 nM [falling, full curve] |
| Cc1ccc(-c2c(C)sc3nc(CN4CCN(CC(=O)NC5CC5)CC4)[nH]c(=O)c23)cc1 | -14.7 | 23.1 nM [falling, full curve, poor fit] | – |
| CCC(C)N(CC(=O)Nc1cccc(C)c1C)C(=O)CCl (centres undefined) | 86.7 | – | – |

Part of the list above in order of count of non-hydrogen atoms, smallest number first:

| Compound | cell number change [%] | AC50 [1] | AC50 [2] |
| --- | --- | --- | --- |
| COc1cc2c(cc1OC)[C@@H](Cc1ccc(OCCC#N)cc1)N(C)CC2 | 19.1 | – | – |
| Cc1ccc(NC(=O)COc2ccccc2C(=O)Nc2ccccc2)cc1Cl | -10.4 | 1160 nM [rising, full curve, poor fit] | – |
| Cc1ccc(-c2c(C)sc3nc(CN4CCN(CC(=O)NC5CC5)CC4)[nH]c(=O)c23)cc1 | -14.7 | 23.1 nM [falling, full curve, poor fit] | – |
